Results are given in words; binding and its absence hold for the method and conditions named. In cells and extracts the contact can be indirect. Some entries that bind do so weakly or less than the wild type.
Key:
[1] = target: human anterior pharynx-defective protein 1 aL with HA tag (hAPH1aL-HA) (human) (UniProt Q96BI3); assay: co-IP; three sequential affinity purifications from CHAPSO-solubilised membranes: anti-Flag M2 (Flag peptide elution), anti-V5 (V5 peptide elution), anti-HA (HA peptide elution), in 0.1% digitonin-TBS at 4°C; purified complexes analysed by SDS-PAGE and immunoblot for NCT, PS1-NTF, PS1-CTF, HA, Flag
[2] = target: human anterior pharynx-defective protein 1 aL with HA tag (hAPH1aL-HA) (human) (UniProt Q96BI3); assay: co-IP; 100 µg microsomal protein extract of γ-MEF clones in 1% CHAPSO-HEPES buffer, anti-Flag M2 (Flag-PEN2) or anti-HA (APH1aL-HA) affinity beads overnight at 4°C, washed in 0.2% CHAPSO-HEPES; immunoblot for NCT, PS1-NTF, PEN2

Chains of the proteins cited; added tags and fusions are not shown. Residues count along the entry.
UniProt Q96BI3: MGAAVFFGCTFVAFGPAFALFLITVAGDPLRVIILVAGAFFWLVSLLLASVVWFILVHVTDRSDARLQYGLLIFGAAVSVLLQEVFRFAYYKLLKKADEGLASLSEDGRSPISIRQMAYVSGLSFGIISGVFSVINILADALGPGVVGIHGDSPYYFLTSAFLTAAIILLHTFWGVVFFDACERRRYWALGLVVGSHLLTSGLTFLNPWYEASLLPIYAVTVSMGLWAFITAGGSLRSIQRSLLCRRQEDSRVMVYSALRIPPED
UniProt Q92542, residues 34-709: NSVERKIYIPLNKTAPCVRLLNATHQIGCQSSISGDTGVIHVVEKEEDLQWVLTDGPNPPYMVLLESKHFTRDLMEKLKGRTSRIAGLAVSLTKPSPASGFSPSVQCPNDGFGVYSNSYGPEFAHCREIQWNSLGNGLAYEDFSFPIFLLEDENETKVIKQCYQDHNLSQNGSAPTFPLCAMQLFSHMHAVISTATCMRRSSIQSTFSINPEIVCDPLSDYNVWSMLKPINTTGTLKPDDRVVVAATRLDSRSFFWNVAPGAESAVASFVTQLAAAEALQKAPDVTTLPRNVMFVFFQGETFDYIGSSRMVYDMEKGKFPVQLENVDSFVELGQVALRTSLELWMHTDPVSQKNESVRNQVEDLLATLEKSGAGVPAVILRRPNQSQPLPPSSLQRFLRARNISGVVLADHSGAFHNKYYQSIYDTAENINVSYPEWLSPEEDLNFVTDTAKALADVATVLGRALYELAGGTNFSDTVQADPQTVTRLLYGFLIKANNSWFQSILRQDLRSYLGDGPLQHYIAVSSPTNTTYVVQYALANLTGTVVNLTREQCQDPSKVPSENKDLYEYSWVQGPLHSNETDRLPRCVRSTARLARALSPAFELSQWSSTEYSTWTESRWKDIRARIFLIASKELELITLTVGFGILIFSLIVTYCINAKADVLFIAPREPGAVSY

| binding [1] | binding [2] | Substance |
| --- | --- | --- |
| binds | binds | human presenilin enhancer 2 with Flag tag (Flag-hPEN2) (from UniProt Q9NZ42 1-101) |
| binds | binds | human nicastrin with V5 tag (hNCT-V5) (from UniProt Q92542 34-709) |

— publication PMC3329438
